Results are given in words; binding and its absence hold for the method and conditions named. For some of these results: In cells and extracts the contact can be indirect. Some binding calls cover weakened binding; strength is not graded here.
Columns and labels:
[1] = target: FLAG-tagged ZNF224 (ZNF224-FLAG), pCAGGSc-ZNF224-FLAG (human) (UniProt Q9NZL3); test: co-IP with anti-FLAG antibody from transfected UM-UC-3 cells, blot with rabbit anti-DEPDC1 (FIG. 1B)
[2] = target: FLAG-tagged ZNF224 (ZNF224-FLAG), pCAGGSc-ZNF224-FLAG (human) (UniProt Q9NZL3); test: IP with anti-DEPDC1 polyclonal antibody, blot with anti-FLAGM2
[3] = target: FLAG-tagged ZNF224 (ZNF224-FLAG), pCAGGSc-ZNF224-FLAG (human) (UniProt Q9NZL3); test: immunoprecipitation (FIG. 1B)
[4] = target: endogenous zinc finger protein 224 (ZNF224) in UM-UC-3 bladder cancer cells (human) (UniProt Q9NZL3); test: immunoprecipitation of UM-UC-3 extracts with anti-DEPDC1 antibody, silver stain, MALDI-TOF

Protein sequences, listed by entry. Tags and fused reporters are not part of them. Lines headed by an entry give the natural chain unless they say otherwise; changes in a name come on top.
UniProt Q9NZL3: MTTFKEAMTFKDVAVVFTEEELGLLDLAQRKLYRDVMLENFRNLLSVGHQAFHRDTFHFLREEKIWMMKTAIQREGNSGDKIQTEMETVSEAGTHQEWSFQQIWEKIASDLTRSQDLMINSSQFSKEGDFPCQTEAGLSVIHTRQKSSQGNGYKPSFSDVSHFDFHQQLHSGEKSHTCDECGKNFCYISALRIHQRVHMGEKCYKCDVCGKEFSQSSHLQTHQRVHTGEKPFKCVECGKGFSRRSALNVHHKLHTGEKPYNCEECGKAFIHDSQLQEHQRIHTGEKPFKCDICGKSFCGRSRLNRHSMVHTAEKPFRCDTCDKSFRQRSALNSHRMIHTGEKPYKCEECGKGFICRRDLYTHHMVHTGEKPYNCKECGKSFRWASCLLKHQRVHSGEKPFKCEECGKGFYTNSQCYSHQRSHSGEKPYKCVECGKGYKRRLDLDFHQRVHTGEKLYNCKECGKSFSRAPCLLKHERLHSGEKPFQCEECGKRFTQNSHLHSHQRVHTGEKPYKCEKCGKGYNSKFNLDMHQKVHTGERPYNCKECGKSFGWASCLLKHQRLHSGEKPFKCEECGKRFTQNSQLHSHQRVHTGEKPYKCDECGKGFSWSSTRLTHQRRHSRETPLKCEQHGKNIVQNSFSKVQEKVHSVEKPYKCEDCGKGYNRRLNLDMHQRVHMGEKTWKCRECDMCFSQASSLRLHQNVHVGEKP

Measured: binding

B1: endogenous DEPDC1 (DEP domain containing 1) in UM-UC-3 bladder cancer cells (protein)
chain: MESQGVPPGPYRATKLWNEVTTSFRAGMPLRKHRQHFKKYGNCFTAGEAVDWLYDLLRNNSNFGPEVTRQQTIQLLRKFLKNHVIEDIKGRWGSENVDDNNQLFRFPATSPLKTLPRRYPELRKNNIENFSKDKDSIFKLRNLSRRTPKRHGLHLSQENGEKIKHEIINEDQENAIDNRELSQEDVEEVWRYVILIYLQTILGVPSLEEVINPKQVIPQYIMYNMANTSKRGVVILQNKSDDLPHWVLSAMKCLANWPRSNDMNNPTYVGFERDVFRTIADYFLDLPEPLLTFEYYELFVNILVVCGYITVSDRSSGIHKIQDDPQSSKFLHLNNLNSFKSTECLLLSLLHREKNKEESDSTERLQISNPGFQERCAKKMQLVNLRNRRVSANDIMGGSCHNLIGLSNMHDLSSNSKPRCCSLEGIVDVPGNSSKEASSVFHQSFPNIEGQNNKLFLESKPKQEFLLNLHSEENIQKPFSAGFKRTSTLTVQDQEELCNGKCKSKQLCRSQSLLLRSSTRRNSYINTPVAEIIMKPNVGQGSTSVQTAMESELGESSATINKRLCKSTIELSENSLLPASSMLTGTQSLLQPHLERVAIDALQLCCLLLPPPNRRKLQLLMRMISRMSQNVDMPKLHDAMGTRSLMIHTFSRCVLCCAEEVDLDELLAGRLVSFLMDHHQEILQVPSYLQTAVEKHLDYLKKGHIENPGDGLFAPLPTYSYCKQISAQEFDEQKVSTSQAAIAELLENIIKNRSLPLKEKRKKLKQFQKEYPLIYQKRFPTTESEAALFGDKPTIKQPMLILRKPKFRSLR
binds: all assays above

From patent US20110237518A1 (ONCOTHERAPY SCIENCE, published 2011)
